# Laboratory results as given in patent US4069035A, “1-(2-Carboxyaryl)-3-aryl-1,2,4-triazoles and use as herbicides” (E. I. Du Pont de Nemours and Company, priority 1976, dated 1978).
# Test: dyeing of fiber swatch with picrate salt, visual evaluation
# Set-up: key: ++: strongly dyed; +: moderately dyed; -: very weakly or not dyed at all
# Details: 90° for 10 min
row,Structure (SMILES),"dyeing, Acetate"
1,"O=C(O)c1ccccc1-n1cnc(-c2ccccc2)n1 [1,2,4-Triazole Picrates, Ar = C6 H5]",+
2,"O=C(O)c1ccccc1-n1cnc(-c2ccc(Cl)cc2)n1 [1,2,4-Triazole Picrates, Ar = 4-ClC6 H4]",+
3,Cc1ccc(-c2ncn(-c3ccccc3C(=O)O)n2)cc1,+
4,"COc1ccc(-c2cn(-c3ccccc3C(=O)O)cn2)cc1 [Imidazole Picrates, Ar = 4-CH3 OC6 H4]",+
5,COc1ccc(-c2ncn(-c3ccccc3C(=O)O)n2)cc1,+
6,"Cc1ccc(-c2cn(-c3ccccc3C(=O)O)cn2)cc1 [Imidazole Picrates, Ar = 4-CH3 C6 H4]",+
7,"O=C(O)c1ccccc1-n1cnc(-c2ccccc2)c1 [Imidazole Picrates, Ar = C6 H5]",+

# Test: as above
# Set-up: key: ++: strongly dyed; +: moderately dyed; -: very weakly or not dyed at all
# Details: 90° for 10 min
# Remark: another data set of the same source
row,Structure (SMILES),"dyeing, Acrilan 1656"
1,"O=C(O)c1ccccc1-n1cnc(-c2ccccc2)n1 [1,2,4-Triazole Picrates, Ar = C6 H5]",+
2,"O=C(O)c1ccccc1-n1cnc(-c2ccc(Cl)cc2)n1 [1,2,4-Triazole Picrates, Ar = 4-ClC6 H4]",+
3,Cc1ccc(-c2ncn(-c3ccccc3C(=O)O)n2)cc1,+
4,"COc1ccc(-c2cn(-c3ccccc3C(=O)O)cn2)cc1 [Imidazole Picrates, Ar = 4-CH3 OC6 H4]",+
5,COc1ccc(-c2ncn(-c3ccccc3C(=O)O)n2)cc1,+
6,"Cc1ccc(-c2cn(-c3ccccc3C(=O)O)cn2)cc1 [Imidazole Picrates, Ar = 4-CH3 C6 H4]",+
7,"O=C(O)c1ccccc1-n1cnc(-c2ccccc2)c1 [Imidazole Picrates, Ar = C6 H5]",+

# Test: as above
# Set-up: key: ++: strongly dyed; +: moderately dyed; -: very weakly or not dyed at all
# Details: 90° for 10 min
# Remark: another data set of the same source
row,Structure (SMILES),"dyeing, Arnel"
1,"O=C(O)c1ccccc1-n1cnc(-c2ccccc2)n1 [1,2,4-Triazole Picrates, Ar = C6 H5]",-
2,"O=C(O)c1ccccc1-n1cnc(-c2ccc(Cl)cc2)n1 [1,2,4-Triazole Picrates, Ar = 4-ClC6 H4]",-
3,Cc1ccc(-c2ncn(-c3ccccc3C(=O)O)n2)cc1,-
4,"COc1ccc(-c2cn(-c3ccccc3C(=O)O)cn2)cc1 [Imidazole Picrates, Ar = 4-CH3 OC6 H4]",-
5,COc1ccc(-c2ncn(-c3ccccc3C(=O)O)n2)cc1,-
6,"Cc1ccc(-c2cn(-c3ccccc3C(=O)O)cn2)cc1 [Imidazole Picrates, Ar = 4-CH3 C6 H4]",-
7,"O=C(O)c1ccccc1-n1cnc(-c2ccccc2)c1 [Imidazole Picrates, Ar = C6 H5]",-

# Test: as above
# Set-up: key: ++: strongly dyed; +: moderately dyed; -: very weakly or not dyed at all
# Details: 90° for 10 min
# Remark: another data set of the same source
row,Structure (SMILES),"dyeing, Cotton"
1,"O=C(O)c1ccccc1-n1cnc(-c2ccccc2)n1 [1,2,4-Triazole Picrates, Ar = C6 H5]",-
2,"O=C(O)c1ccccc1-n1cnc(-c2ccc(Cl)cc2)n1 [1,2,4-Triazole Picrates, Ar = 4-ClC6 H4]",-
3,Cc1ccc(-c2ncn(-c3ccccc3C(=O)O)n2)cc1,-
4,"COc1ccc(-c2cn(-c3ccccc3C(=O)O)cn2)cc1 [Imidazole Picrates, Ar = 4-CH3 OC6 H4]",-
5,COc1ccc(-c2ncn(-c3ccccc3C(=O)O)n2)cc1,-
6,"Cc1ccc(-c2cn(-c3ccccc3C(=O)O)cn2)cc1 [Imidazole Picrates, Ar = 4-CH3 C6 H4]",-
7,"O=C(O)c1ccccc1-n1cnc(-c2ccccc2)c1 [Imidazole Picrates, Ar = C6 H5]",-

# Test: as above
# Set-up: key: ++: strongly dyed; +: moderately dyed; -: very weakly or not dyed at all
# Details: 90° for 10 min
# Remark: another data set of the same source
row,Structure (SMILES),"dyeing, Creslan 61"
1,"O=C(O)c1ccccc1-n1cnc(-c2ccccc2)n1 [1,2,4-Triazole Picrates, Ar = C6 H5]",-
2,"O=C(O)c1ccccc1-n1cnc(-c2ccc(Cl)cc2)n1 [1,2,4-Triazole Picrates, Ar = 4-ClC6 H4]",-
3,Cc1ccc(-c2ncn(-c3ccccc3C(=O)O)n2)cc1,-
4,"COc1ccc(-c2cn(-c3ccccc3C(=O)O)cn2)cc1 [Imidazole Picrates, Ar = 4-CH3 OC6 H4]",-
5,COc1ccc(-c2ncn(-c3ccccc3C(=O)O)n2)cc1,-
6,"Cc1ccc(-c2cn(-c3ccccc3C(=O)O)cn2)cc1 [Imidazole Picrates, Ar = 4-CH3 C6 H4]",-
7,"O=C(O)c1ccccc1-n1cnc(-c2ccccc2)c1 [Imidazole Picrates, Ar = C6 H5]",-

# Test: as above
# Set-up: key: ++: strongly dyed; +: moderately dyed; -: very weakly or not dyed at all
# Details: 90° for 10 min
# Remark: another data set of the same source
row,Structure (SMILES),"dyeing, Dacron 54"
1,"O=C(O)c1ccccc1-n1cnc(-c2ccccc2)n1 [1,2,4-Triazole Picrates, Ar = C6 H5]",-
2,"O=C(O)c1ccccc1-n1cnc(-c2ccc(Cl)cc2)n1 [1,2,4-Triazole Picrates, Ar = 4-ClC6 H4]",-
3,Cc1ccc(-c2ncn(-c3ccccc3C(=O)O)n2)cc1,-
4,"COc1ccc(-c2cn(-c3ccccc3C(=O)O)cn2)cc1 [Imidazole Picrates, Ar = 4-CH3 OC6 H4]",-
5,COc1ccc(-c2ncn(-c3ccccc3C(=O)O)n2)cc1,-
6,"Cc1ccc(-c2cn(-c3ccccc3C(=O)O)cn2)cc1 [Imidazole Picrates, Ar = 4-CH3 C6 H4]",-
7,"O=C(O)c1ccccc1-n1cnc(-c2ccccc2)c1 [Imidazole Picrates, Ar = C6 H5]",-

# Test: as above
# Set-up: key: ++: strongly dyed; +: moderately dyed; -: very weakly or not dyed at all
# Details: 90° for 10 min
# Remark: another data set of the same source
row,Structure (SMILES),"dyeing, Dacron 64"
1,"O=C(O)c1ccccc1-n1cnc(-c2ccccc2)n1 [1,2,4-Triazole Picrates, Ar = C6 H5]",-
2,"O=C(O)c1ccccc1-n1cnc(-c2ccc(Cl)cc2)n1 [1,2,4-Triazole Picrates, Ar = 4-ClC6 H4]",-
3,Cc1ccc(-c2ncn(-c3ccccc3C(=O)O)n2)cc1,-
4,"COc1ccc(-c2cn(-c3ccccc3C(=O)O)cn2)cc1 [Imidazole Picrates, Ar = 4-CH3 OC6 H4]",-
5,COc1ccc(-c2ncn(-c3ccccc3C(=O)O)n2)cc1,-
6,"Cc1ccc(-c2cn(-c3ccccc3C(=O)O)cn2)cc1 [Imidazole Picrates, Ar = 4-CH3 C6 H4]",-
7,"O=C(O)c1ccccc1-n1cnc(-c2ccccc2)c1 [Imidazole Picrates, Ar = C6 H5]",-

# Test: as above
# Set-up: key: ++: strongly dyed; +: moderately dyed; -: very weakly or not dyed at all
# Details: 90° for 10 min
# Remark: another data set of the same source
row,Structure (SMILES),"dyeing, Nylon"
1,"O=C(O)c1ccccc1-n1cnc(-c2ccccc2)n1 [1,2,4-Triazole Picrates, Ar = C6 H5]",++
2,"O=C(O)c1ccccc1-n1cnc(-c2ccc(Cl)cc2)n1 [1,2,4-Triazole Picrates, Ar = 4-ClC6 H4]",++
3,Cc1ccc(-c2ncn(-c3ccccc3C(=O)O)n2)cc1,++
4,"COc1ccc(-c2cn(-c3ccccc3C(=O)O)cn2)cc1 [Imidazole Picrates, Ar = 4-CH3 OC6 H4]",++
5,COc1ccc(-c2ncn(-c3ccccc3C(=O)O)n2)cc1,++
6,"Cc1ccc(-c2cn(-c3ccccc3C(=O)O)cn2)cc1 [Imidazole Picrates, Ar = 4-CH3 C6 H4]",++
7,"O=C(O)c1ccccc1-n1cnc(-c2ccccc2)c1 [Imidazole Picrates, Ar = C6 H5]",++

# Test: as above
# Set-up: key: ++: strongly dyed; +: moderately dyed; -: very weakly or not dyed at all
# Details: 90° for 10 min
# Remark: another data set of the same source
row,Structure (SMILES),"dyeing, Orlon"
1,"O=C(O)c1ccccc1-n1cnc(-c2ccccc2)n1 [1,2,4-Triazole Picrates, Ar = C6 H5]",-
2,"O=C(O)c1ccccc1-n1cnc(-c2ccc(Cl)cc2)n1 [1,2,4-Triazole Picrates, Ar = 4-ClC6 H4]",-
3,Cc1ccc(-c2ncn(-c3ccccc3C(=O)O)n2)cc1,-
4,"COc1ccc(-c2cn(-c3ccccc3C(=O)O)cn2)cc1 [Imidazole Picrates, Ar = 4-CH3 OC6 H4]",-
5,COc1ccc(-c2ncn(-c3ccccc3C(=O)O)n2)cc1,-
6,"Cc1ccc(-c2cn(-c3ccccc3C(=O)O)cn2)cc1 [Imidazole Picrates, Ar = 4-CH3 C6 H4]",-
7,"O=C(O)c1ccccc1-n1cnc(-c2ccccc2)c1 [Imidazole Picrates, Ar = C6 H5]",-

# Test: as above
# Set-up: key: ++: strongly dyed; +: moderately dyed; -: very weakly or not dyed at all
# Details: 90° for 10 min
# Remark: another data set of the same source
row,Structure (SMILES),"dyeing, Silk"
1,"O=C(O)c1ccccc1-n1cnc(-c2ccccc2)n1 [1,2,4-Triazole Picrates, Ar = C6 H5]",++
2,"O=C(O)c1ccccc1-n1cnc(-c2ccc(Cl)cc2)n1 [1,2,4-Triazole Picrates, Ar = 4-ClC6 H4]",++
3,Cc1ccc(-c2ncn(-c3ccccc3C(=O)O)n2)cc1,++
4,"COc1ccc(-c2cn(-c3ccccc3C(=O)O)cn2)cc1 [Imidazole Picrates, Ar = 4-CH3 OC6 H4]",++
5,COc1ccc(-c2ncn(-c3ccccc3C(=O)O)n2)cc1,++
6,"Cc1ccc(-c2cn(-c3ccccc3C(=O)O)cn2)cc1 [Imidazole Picrates, Ar = 4-CH3 C6 H4]",++
7,"O=C(O)c1ccccc1-n1cnc(-c2ccccc2)c1 [Imidazole Picrates, Ar = C6 H5]",++

# Test: as above
# Set-up: key: ++: strongly dyed; +: moderately dyed; -: very weakly or not dyed at all
# Details: 90° for 10 min
# Remark: another data set of the same source
row,Structure (SMILES),"dyeing, Verel 75"
1,"O=C(O)c1ccccc1-n1cnc(-c2ccccc2)n1 [1,2,4-Triazole Picrates, Ar = C6 H5]",+
2,"O=C(O)c1ccccc1-n1cnc(-c2ccc(Cl)cc2)n1 [1,2,4-Triazole Picrates, Ar = 4-ClC6 H4]",-
3,Cc1ccc(-c2ncn(-c3ccccc3C(=O)O)n2)cc1,+
4,"COc1ccc(-c2cn(-c3ccccc3C(=O)O)cn2)cc1 [Imidazole Picrates, Ar = 4-CH3 OC6 H4]",-
5,COc1ccc(-c2ncn(-c3ccccc3C(=O)O)n2)cc1,-
6,"Cc1ccc(-c2cn(-c3ccccc3C(=O)O)cn2)cc1 [Imidazole Picrates, Ar = 4-CH3 C6 H4]",-
7,"O=C(O)c1ccccc1-n1cnc(-c2ccccc2)c1 [Imidazole Picrates, Ar = C6 H5]",-

# Test: as above
# Set-up: key: ++: strongly dyed; +: moderately dyed; -: very weakly or not dyed at all
# Details: 90° for 10 min
# Remark: another data set of the same source
row,Structure (SMILES),"dyeing, Viscose"
1,"O=C(O)c1ccccc1-n1cnc(-c2ccccc2)n1 [1,2,4-Triazole Picrates, Ar = C6 H5]",+
2,"O=C(O)c1ccccc1-n1cnc(-c2ccc(Cl)cc2)n1 [1,2,4-Triazole Picrates, Ar = 4-ClC6 H4]",-
3,Cc1ccc(-c2ncn(-c3ccccc3C(=O)O)n2)cc1,-
4,"COc1ccc(-c2cn(-c3ccccc3C(=O)O)cn2)cc1 [Imidazole Picrates, Ar = 4-CH3 OC6 H4]",-
5,COc1ccc(-c2ncn(-c3ccccc3C(=O)O)n2)cc1,-
6,"Cc1ccc(-c2cn(-c3ccccc3C(=O)O)cn2)cc1 [Imidazole Picrates, Ar = 4-CH3 C6 H4]",-
7,"O=C(O)c1ccccc1-n1cnc(-c2ccccc2)c1 [Imidazole Picrates, Ar = C6 H5]",-

# Test: as above
# Set-up: key: ++: strongly dyed; +: moderately dyed; -: very weakly or not dyed at all
# Details: 90° for 10 min
# Remark: another data set of the same source
row,Structure (SMILES),"dyeing, Wool"
1,"O=C(O)c1ccccc1-n1cnc(-c2ccccc2)n1 [1,2,4-Triazole Picrates, Ar = C6 H5]",++
2,"O=C(O)c1ccccc1-n1cnc(-c2ccc(Cl)cc2)n1 [1,2,4-Triazole Picrates, Ar = 4-ClC6 H4]",++
3,Cc1ccc(-c2ncn(-c3ccccc3C(=O)O)n2)cc1,++
4,"COc1ccc(-c2cn(-c3ccccc3C(=O)O)cn2)cc1 [Imidazole Picrates, Ar = 4-CH3 OC6 H4]",++
5,COc1ccc(-c2ncn(-c3ccccc3C(=O)O)n2)cc1,++
6,"Cc1ccc(-c2cn(-c3ccccc3C(=O)O)cn2)cc1 [Imidazole Picrates, Ar = 4-CH3 C6 H4]",++
7,"O=C(O)c1ccccc1-n1cnc(-c2ccccc2)c1 [Imidazole Picrates, Ar = C6 H5]",++
